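Assay on Mycobacterium tuberculosis, filed only as a heat shock assay from Cornell; the read-out is not stated. The concentration is filed as 10 mM, unlikely as a test dose, so the dose is not known. The record gives no direction; compounds that gave an IC50 in retests scored well above the rest, so higher reads as stronger inhibition. Size under these conditions: about 69,000 compounds, about 930 of them at 50% or above in at least one test.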

The filed quantity is “Percent Effect” (%).
How 0% and 100% were set is not recorded. Most values in the screen are low, and negative values occur.
The compounds are a random part of those screened.

| SMILES | effect |
|---|---|
| `COCC1CN(C(=O)c2ccnnc2)Cc2c1cnn2C` (stereo not drawn) | -2.546% |
| `Cc1noc(Cl)c1CCC(=O)N1CCN(CC(C)(C)O)CC1` | -25.99% |
| `Cc1noc(C)c1CCC(=O)NC(C)c1nnc2n1CCC2` (stereo not drawn) | -19.16% |
| `Cc1cccc(N(C)S(=O)(=O)c2cc(C(=O)O)cs2)c1` | -19.99% |
| `O=C(c1nc(COc2ccc3c(c2)OCO3)no1)N1CCCC1` | 24.96% |
| `CC(C)CCN1CCC2(CC1)NCc1ccccc1NC2=O` | -19.68% |
| `Cc1cc(C(=O)N2CCC3(C2)CN(c2cccnc2)C(=O)CN3C)[nH]n1.O=C(O)C(F)(F)F.O=C(O)C(F)(F)F` (stereo not drawn) | -8.633% |
| `CC(=O)NCC(=O)N1CCC2(CC1)NC(=O)CC2c1cnn(C)c1` (stereo not drawn) | 7.558% |
| `Cn1ccc(C(=O)N(CC(F)(F)F)c2cccc(Cl)c2)cc1=O` | -11.69% |
| `Cc1nc(NCCc2ccccc2)cc(C(=O)N2CCOCC2)n1` | 3.627% |
| `CCO[C@@H]1CO[C@@]2(CCN(Cc3ccc4c(c3)OCO4)C2)C1.O=C(O)C(F)(F)F` | 1.049% |
| `c1csc(-c2nnc(CSCCN3CCOCC3)o2)c1` | -3.622% |
| `CC(NC(=O)NCCc1nc(C(F)(F)F)cs1)C(=O)N(C)C` (stereo not drawn) | -9.086% |
| `Cc1ccc(CN2CCc3ncnc(C4CCOC4)c3CC2)s1.O=C(O)C(F)(F)F` (stereo not drawn) | 14.66% |
| `Cn1ccc(C(=O)N2CCC(Cc3cccc4cccnc34)C2)n1` (stereo not drawn) | 5.823% |
| `Cn1nccc1CNC(=O)NC1CCN(c2ncccc2Cl)C1` (stereo not drawn) | -0.8033% |
| `CC(Cc1cccc(F)c1)C(=O)NS(=O)(=O)c1ccc2c(c1)OCCO2` (stereo not drawn) | -161.9% |
| `CN(C)[C@@H]1CCN(C(=O)c2ccsc2)[C@H]1Cc1cccnc1.O=C(O)C(F)(F)F.O=C(O)C(F)(F)F` | -16.81% |
| `CCCn1cc(NC(=O)c2ccc(S(C)(=O)=O)cc2)ccc1=O` | -22.55% |
| `O=C(O)C(F)(F)F.O[C@@H]1CCN(CC2CC2)[C@H]1Cc1ccccc1` | -16.02% |
| `CC(=O)N1CCCC1c1nnc2n1CCCCC2` (stereo not drawn) | 11.41% |
| `[H][C@@]12CCN(C3CCC3)[C@]1([H])CC[C@@H](c1nnc(C)o1)O2` | 6.534% |
| `Cc1nc2ccccc2c(=O)n1Cc1nnnn1C1CC1` | 39.15% |
| `CNC(=O)[C@@H](c1ccccc1)N1CCC[C@H]1C(=O)NCc1ccccn1.Cl.Cl` | -3.989% |
| `O=C(NCc1ccccc1CO)C1COc2ccccc21` (stereo not drawn) | 7% |
| `CCN1C(=O)C(c2ccccc2)CC12CCN(Cc1cccnc1)CC2.O=C(O)C(F)(F)F.O=C(O)C(F)(F)F` (stereo not drawn) | 2.402% |
| `CCCc1nnsc1C(=O)N1CCN(CC(O)c2ccco2)CC1.Cl` (stereo not drawn) | 8.936% |
| `Cc1cc(C(=O)N2CCC[C@]3(C[C@H](OCC4CC4)CO3)C2)no1` | 0.2299% |
| `Cc1nc(C(C)NC(=O)c2cn(Cc3ccc(Cl)cc3)nn2)n[nH]1` (stereo not drawn) | -14.62% |
| `CC(C)(CO)N1CCN(S(=O)(=O)CCCF)CC1` | 13.34% |
| `COc1cc(NC(=O)NCc2cc(C)oc2C)cc(OC)c1` | 27.45% |
| `CCCS(=O)(=O)N1CCN(C(=O)CO)CC1` | -1.929% |
| `Cc1cc(N2CCN(C(=O)c3cc(Cl)c[nH]3)CC2)nc(C(C)C)n1` | 19.9% |
| `CCN(Cc1ccoc1)C(=O)NC1CCN(C(=O)OC(C)(C)C)C1` (stereo not drawn) | 12.34% |
| `COCc1n[nH]c2c1CN(C(=O)c1ccncc1)C2.O=C(O)C(F)(F)F` | -6.663% |
| `O=C(NCC(F)(F)F)C1CCCN(Cc2ccno2)C1` (stereo not drawn) | 15.48% |
| `CCn1c(C2CCNCC2)nn(CCCc2ccccc2)c1=O` | 4.837% |
| `CCN(CC)S(=O)(=O)N1CCC(c2nccn2Cc2ccccn2)CC1` | -9.069% |
| `CCOc1nnc(CN2CCN(CCOC)C(C)C2)s1` (stereo not drawn) | -37.02% |
| `CN(C)c1ncccc1CNC(=O)N(Cc1ccccc1F)C1CC1` | -32.32% |
| `COc1c(CNC2CCCOc3ccc(F)cc32)c(C)nn1C.Cl` (stereo not drawn) | 0.9236% |
| `COCCN1CCc2ccc(=O)n(Cc3csc(C)n3)c2CC1.O=C(O)C(F)(F)F.O=C(O)C(F)(F)F` | -11.24% |
| `O=C(O)C(F)(F)F.O=C(c1cscn1)N1CCC2(CCN(Cc3cccs3)CC2)C1` | 3.711% |
| `N#Cc1cccc(CN2CCn3cc(CNC(=O)C4CCC4)nc3C2)c1` | 18.38% |
| `COc1ccc(CCN2CCCC(CN(C)Cc3[nH]cnc3C)C2)cc1` (stereo not drawn) | -2.217% |
| `CCN(CC)c1ncnc2c1CCN(c1ccc(C)nn1)CC2` | 6.085% |
| `[H][C@@]12CN(Cc3cccnc3)C[C@]1([H])OCCN2Cc1c(C)noc1C` | -31.89% |
| `Cc1ccc(C(=O)N2CCn3cc(CN4CCCCC4)nc3C2)o1.O=C(O)C(F)(F)F` | -14.68% |
| `Cc1cc2cc(C(=O)N3CC[C@H](O)[C@]4(CCCO4)C3)ccc2o1` | -15.2% |
| `CCn1cnnc1CNC(=O)NC(C)c1ccccn1` (stereo not drawn) | -0.2645% |
| `COCCCN1C(=O)c2ccc(C(=O)NCCc3c[nH]cn3)cc2C1=O` | -9.092% |
| `[H][C@@]12COC[C@]1(COCc1ccncc1)CN(C(=O)C1=CCCC1)C2` | 48.37% |
| `NC(=O)CC1CCCCN1C(=O)c1ccc2cc[nH]c2c1` (stereo not drawn) | 8.499% |
| `Cc1cc(C(=O)N2CCN(c3nc4c(C(C)C)cccc4s3)CC2)no1` | 88.51% |
| `COc1ccc(C(C(=O)O)N2CCC(Cn3cccn3)CC2)c(OC)n1` (stereo not drawn) | -2.653% |
| `COc1ccc(-c2nnc(SC(C)C(=O)NC3CCCC3)[nH]2)c(OC)c1` (stereo not drawn) | 4.615% |
| `Cc1cc(C(F)F)nn1C(C)C(=O)NCc1nccn1C` (stereo not drawn) | 11.04% |
| `O=c1cc(C2CCNCC2)nc(CCc2ccccn2)[nH]1` | 6.043% |
| `O=C(O)C(F)(F)F.O=C(O)C(F)(F)F.[H][C@@]12CN(Cc3cnn(C)c3)C[C@]1([H])OCCN2c1ncccn1` | -21.69% |
| `O=C(CC1CNCCO1)N1CCC(c2cc(N3CCCC3)ncn2)CC1` (stereo not drawn) | -18.42% |
| `Cn1ncc2ccc(C3CCCN(Cc4cccs4)C3)nc21` (stereo not drawn) | 13.99% |
| `CCN(CC)c1ncnc2c1CCN(C(=O)Cc1ccccn1)CC2.O=C(O)C(F)(F)F.O=C(O)C(F)(F)F` | -18.08% |
| `CN(C)C(=O)N1CCC2(CC1)COCCN(c1ncccn1)C2` | -11.32% |
| `Cc1ccc(N2CCN(C(=O)[C@@H]3CCC(=O)N3)CC2=O)cc1` | 17.26% |
| `Cc1cn(-c2ccccc2)nc1NS(=O)(=O)c1cc(C(=O)O)cs1` | -8.594% |
| `[H][C@@]12CN(C(=O)CC3CC3)C[C@]1([H])C(=O)N(CC1CC1)C2` | -13.29% |
| `[H][C@@]12COC[C@]1(CNS(C)(=O)=O)CN(C(=O)c1occc1C)C2` | 0.9522% |
| `Cc1ncnc2c1CCN(C(=O)c1ccncc1)CC2.O=C(O)C(F)(F)F` | -10.85% |

Some entries from above, unchanged:

{"smiles": "CC(NC(=O)NCCc1nc(C(F)(F)F)cs1)C(=O)N(C)C", "stereo": "stereo not drawn", "effect": -9.086}
{"smiles": "Cc1ncnc2c1CCN(C(=O)c1ccncc1)CC2.O=C(O)C(F)(F)F", "effect": -10.85}
{"smiles": "COc1ccc(C(C(=O)O)N2CCC(Cn3cccn3)CC2)c(OC)n1", "stereo": "stereo not drawn", "effect": -2.653}
{"smiles": "c1csc(-c2nnc(CSCCN3CCOCC3)o2)c1", "effect": -3.622}
{"smiles": "[H][C@@]12CN(C(=O)CC3CC3)C[C@]1([H])C(=O)N(CC1CC1)C2", "effect": -13.29}
{"smiles": "N#Cc1cccc(CN2CCn3cc(CNC(=O)C4CCC4)nc3C2)c1", "effect": 18.38}
{"smiles": "O=C(O)C(F)(F)F.O=C(c1cscn1)N1CCC2(CCN(Cc3cccs3)CC2)C1", "effect": 3.711}

Source: ChEMBL document CHEMBL3988442, “University of Dundee, Small-Polar-MMV Screening Library” (2021).